{
  "sequences": {"note": "By UniProt entry, the sequences of proteins in these tests, tags left out. Where a name states a change or a piece, a line headed by the entry shows the natural chain unless it says otherwise.", "UniProt Q92750": "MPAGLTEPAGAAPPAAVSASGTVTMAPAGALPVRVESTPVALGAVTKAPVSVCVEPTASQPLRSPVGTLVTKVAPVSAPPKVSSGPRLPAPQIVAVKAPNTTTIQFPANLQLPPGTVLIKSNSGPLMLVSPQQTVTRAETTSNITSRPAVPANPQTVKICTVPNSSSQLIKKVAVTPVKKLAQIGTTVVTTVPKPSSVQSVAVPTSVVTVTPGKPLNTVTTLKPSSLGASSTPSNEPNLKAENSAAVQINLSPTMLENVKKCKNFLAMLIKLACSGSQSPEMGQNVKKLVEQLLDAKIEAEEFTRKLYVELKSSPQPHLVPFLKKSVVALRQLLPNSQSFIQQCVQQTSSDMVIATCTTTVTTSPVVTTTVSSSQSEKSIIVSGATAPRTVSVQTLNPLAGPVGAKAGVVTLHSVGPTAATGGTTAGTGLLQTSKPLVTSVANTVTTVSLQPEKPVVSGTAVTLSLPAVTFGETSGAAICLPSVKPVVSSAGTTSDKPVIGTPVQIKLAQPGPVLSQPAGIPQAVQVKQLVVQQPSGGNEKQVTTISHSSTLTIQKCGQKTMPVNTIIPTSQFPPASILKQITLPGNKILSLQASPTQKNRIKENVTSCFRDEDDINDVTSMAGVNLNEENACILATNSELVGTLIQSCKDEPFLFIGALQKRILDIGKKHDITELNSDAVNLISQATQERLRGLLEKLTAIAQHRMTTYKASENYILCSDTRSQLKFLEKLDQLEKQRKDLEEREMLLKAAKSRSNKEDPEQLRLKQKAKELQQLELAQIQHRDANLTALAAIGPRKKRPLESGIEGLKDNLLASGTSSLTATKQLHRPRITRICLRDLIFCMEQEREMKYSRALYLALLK", "UniProt Q9UK61": "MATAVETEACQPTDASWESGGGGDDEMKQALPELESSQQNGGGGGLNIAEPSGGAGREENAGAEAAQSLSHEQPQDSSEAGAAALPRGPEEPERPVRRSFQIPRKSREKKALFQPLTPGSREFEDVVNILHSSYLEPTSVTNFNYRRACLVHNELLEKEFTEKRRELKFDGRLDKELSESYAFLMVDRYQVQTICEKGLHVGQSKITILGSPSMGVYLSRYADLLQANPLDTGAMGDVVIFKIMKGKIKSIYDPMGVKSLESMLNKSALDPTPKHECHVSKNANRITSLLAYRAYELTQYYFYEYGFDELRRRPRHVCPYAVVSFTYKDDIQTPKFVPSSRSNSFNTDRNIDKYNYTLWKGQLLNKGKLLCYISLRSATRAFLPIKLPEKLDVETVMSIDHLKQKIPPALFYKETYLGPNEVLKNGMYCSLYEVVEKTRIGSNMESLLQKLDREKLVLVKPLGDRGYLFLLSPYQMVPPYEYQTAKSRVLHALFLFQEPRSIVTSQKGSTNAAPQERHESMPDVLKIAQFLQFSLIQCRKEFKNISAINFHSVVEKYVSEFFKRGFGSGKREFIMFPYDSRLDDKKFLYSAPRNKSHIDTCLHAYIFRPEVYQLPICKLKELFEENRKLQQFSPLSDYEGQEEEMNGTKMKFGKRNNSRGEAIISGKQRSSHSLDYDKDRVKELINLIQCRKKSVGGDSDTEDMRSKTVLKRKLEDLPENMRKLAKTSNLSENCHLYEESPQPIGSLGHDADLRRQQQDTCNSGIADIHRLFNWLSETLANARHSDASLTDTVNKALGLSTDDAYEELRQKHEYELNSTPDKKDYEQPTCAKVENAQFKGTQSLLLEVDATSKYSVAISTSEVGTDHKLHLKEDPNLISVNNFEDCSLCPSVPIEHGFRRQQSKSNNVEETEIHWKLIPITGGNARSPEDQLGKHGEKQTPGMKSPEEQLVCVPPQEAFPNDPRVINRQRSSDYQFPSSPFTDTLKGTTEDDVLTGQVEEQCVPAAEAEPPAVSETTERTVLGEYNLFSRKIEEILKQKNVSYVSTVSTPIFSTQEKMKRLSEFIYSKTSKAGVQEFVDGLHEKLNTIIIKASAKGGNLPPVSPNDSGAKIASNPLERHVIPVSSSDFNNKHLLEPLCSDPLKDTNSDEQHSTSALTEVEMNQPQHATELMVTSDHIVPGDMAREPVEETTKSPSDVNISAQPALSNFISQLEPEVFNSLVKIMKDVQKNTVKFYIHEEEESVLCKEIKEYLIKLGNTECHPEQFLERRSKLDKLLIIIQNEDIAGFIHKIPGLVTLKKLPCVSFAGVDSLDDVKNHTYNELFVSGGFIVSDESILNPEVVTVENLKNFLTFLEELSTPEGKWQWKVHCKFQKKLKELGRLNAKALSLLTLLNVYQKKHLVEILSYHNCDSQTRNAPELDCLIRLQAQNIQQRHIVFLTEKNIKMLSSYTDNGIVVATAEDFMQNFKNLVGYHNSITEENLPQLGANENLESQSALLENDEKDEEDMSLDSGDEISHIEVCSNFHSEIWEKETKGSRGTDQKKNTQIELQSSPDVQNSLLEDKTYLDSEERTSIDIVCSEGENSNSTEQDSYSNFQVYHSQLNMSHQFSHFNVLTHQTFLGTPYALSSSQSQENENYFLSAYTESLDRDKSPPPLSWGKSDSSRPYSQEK", "UniProt Q9H5Q4": "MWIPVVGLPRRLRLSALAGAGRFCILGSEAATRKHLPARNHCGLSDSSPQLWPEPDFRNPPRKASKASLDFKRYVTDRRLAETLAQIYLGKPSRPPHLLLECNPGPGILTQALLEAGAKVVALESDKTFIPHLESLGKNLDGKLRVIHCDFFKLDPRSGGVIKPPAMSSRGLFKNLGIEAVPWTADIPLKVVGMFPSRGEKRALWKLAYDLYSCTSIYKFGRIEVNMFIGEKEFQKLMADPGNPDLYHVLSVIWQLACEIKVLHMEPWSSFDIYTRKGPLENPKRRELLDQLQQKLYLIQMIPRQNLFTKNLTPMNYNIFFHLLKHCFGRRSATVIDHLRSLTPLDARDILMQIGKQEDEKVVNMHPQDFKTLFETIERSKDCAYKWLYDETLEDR", "UniProt O60343": "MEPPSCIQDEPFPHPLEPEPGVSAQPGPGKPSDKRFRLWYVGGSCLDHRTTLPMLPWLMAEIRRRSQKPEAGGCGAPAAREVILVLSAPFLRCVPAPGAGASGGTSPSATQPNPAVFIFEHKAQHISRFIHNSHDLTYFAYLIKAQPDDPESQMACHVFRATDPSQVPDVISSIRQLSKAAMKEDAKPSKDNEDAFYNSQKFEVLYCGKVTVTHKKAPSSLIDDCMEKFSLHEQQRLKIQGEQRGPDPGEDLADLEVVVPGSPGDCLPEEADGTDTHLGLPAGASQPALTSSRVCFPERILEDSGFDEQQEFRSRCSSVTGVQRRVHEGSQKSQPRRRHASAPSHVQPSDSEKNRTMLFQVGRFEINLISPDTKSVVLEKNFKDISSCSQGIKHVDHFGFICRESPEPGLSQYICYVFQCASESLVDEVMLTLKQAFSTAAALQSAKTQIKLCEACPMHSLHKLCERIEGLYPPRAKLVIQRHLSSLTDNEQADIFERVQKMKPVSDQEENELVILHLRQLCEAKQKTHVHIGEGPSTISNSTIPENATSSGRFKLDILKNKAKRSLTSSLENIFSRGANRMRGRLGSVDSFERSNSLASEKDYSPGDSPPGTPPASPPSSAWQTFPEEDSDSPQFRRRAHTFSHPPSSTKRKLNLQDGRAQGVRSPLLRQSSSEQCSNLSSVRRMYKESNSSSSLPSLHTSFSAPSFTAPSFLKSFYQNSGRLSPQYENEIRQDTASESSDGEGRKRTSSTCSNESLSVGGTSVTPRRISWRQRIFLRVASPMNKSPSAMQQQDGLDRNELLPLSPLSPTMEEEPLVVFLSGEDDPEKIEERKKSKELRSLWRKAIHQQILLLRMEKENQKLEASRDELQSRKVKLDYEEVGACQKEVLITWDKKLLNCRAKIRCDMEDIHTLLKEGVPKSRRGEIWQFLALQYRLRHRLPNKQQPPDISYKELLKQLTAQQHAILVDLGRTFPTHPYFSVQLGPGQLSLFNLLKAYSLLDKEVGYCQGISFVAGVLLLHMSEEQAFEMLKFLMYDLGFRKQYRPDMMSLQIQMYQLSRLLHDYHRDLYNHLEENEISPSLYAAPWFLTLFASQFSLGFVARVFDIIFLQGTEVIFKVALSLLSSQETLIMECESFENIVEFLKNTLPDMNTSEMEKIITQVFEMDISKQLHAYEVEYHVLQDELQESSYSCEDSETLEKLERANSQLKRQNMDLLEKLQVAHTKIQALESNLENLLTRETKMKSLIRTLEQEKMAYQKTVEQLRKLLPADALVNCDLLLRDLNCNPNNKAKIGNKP", "UniProt Q66K14, whole entry, looked up": "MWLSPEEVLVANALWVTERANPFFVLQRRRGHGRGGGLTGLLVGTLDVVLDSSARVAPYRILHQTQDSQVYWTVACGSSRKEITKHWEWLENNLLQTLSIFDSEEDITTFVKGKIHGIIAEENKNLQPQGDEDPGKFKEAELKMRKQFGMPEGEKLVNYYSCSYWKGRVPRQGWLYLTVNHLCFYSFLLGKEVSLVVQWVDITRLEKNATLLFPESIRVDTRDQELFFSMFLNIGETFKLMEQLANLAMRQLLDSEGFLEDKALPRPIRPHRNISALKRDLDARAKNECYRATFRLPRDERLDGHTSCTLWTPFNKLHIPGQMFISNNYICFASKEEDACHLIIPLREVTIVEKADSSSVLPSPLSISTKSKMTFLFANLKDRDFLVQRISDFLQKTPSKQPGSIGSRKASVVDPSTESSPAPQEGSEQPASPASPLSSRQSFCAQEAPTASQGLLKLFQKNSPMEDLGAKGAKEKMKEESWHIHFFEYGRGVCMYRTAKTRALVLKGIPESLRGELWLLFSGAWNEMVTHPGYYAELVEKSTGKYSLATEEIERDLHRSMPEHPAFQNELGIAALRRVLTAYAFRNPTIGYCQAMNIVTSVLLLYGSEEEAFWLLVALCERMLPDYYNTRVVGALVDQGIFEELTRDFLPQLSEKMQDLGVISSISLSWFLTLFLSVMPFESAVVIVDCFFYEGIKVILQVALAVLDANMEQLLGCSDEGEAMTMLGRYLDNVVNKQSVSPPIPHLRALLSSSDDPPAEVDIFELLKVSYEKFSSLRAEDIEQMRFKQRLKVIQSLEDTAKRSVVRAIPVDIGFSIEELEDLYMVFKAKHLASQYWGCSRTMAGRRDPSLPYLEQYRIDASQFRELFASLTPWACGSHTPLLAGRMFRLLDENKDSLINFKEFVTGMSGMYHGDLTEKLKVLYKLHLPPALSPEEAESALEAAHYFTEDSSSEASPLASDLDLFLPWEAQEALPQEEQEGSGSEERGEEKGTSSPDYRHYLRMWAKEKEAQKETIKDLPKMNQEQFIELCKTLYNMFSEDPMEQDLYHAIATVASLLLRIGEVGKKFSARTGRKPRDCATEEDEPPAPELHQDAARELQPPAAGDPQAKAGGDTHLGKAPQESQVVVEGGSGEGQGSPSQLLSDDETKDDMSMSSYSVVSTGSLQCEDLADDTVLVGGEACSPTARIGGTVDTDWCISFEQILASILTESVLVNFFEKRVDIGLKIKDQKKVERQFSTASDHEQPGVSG", "UniProt Q9UPU7": "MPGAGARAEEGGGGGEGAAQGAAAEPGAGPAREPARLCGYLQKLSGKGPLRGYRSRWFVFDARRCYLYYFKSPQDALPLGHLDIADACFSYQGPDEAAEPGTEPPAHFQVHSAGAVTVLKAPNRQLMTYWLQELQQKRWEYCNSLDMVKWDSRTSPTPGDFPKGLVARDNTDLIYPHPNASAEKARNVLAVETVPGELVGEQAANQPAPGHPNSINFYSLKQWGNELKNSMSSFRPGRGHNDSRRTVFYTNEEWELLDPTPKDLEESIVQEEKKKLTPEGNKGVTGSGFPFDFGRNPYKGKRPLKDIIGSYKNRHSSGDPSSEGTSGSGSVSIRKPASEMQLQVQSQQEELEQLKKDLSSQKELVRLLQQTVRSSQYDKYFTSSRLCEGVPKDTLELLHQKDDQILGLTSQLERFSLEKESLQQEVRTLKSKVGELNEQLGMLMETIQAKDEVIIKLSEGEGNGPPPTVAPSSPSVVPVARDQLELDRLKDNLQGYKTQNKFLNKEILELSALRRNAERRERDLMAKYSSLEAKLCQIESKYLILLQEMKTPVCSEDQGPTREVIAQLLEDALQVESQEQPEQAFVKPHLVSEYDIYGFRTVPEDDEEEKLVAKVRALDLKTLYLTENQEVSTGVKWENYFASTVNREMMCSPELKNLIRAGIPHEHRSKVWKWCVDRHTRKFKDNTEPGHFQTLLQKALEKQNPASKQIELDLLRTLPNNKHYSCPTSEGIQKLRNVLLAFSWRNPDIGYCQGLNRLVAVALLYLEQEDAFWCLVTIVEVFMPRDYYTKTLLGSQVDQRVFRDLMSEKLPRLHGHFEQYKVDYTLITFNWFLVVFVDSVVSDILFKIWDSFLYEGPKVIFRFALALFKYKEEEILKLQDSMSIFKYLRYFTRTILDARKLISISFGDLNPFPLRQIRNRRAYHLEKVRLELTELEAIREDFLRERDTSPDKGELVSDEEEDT"},
  "source": "the supplement of paper PMC11732987",
  "about": "“Enantioselective OTUD7B fragment discovery through chemoproteomics screening and high-throughput optimisation” (Communications Chemistry, 2025)",
  "note": "The list shows a part of the results. The data scatter; read single values as rough.",
  "data": [
    {"compound": "ClCC(=O)N[C@@H]1CCCc2ccccc12", "test": "log2 mean competition ratio of IA-DTB cysteine labelling (DMSO/compound) (log2 ratio); higher = stronger cysteine engagement by compound", "conditions": "50 µM; treatment time: 4 h; cell line lysate: HEK293T", "description": "(§1)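 IA-DTB competitive cysteine chemoproteomics in HEK293T RIPA lysate. Lysates were treated with compound 29 or 30 at 50 or 200 µM for 4 h, then IA-DTB (500 µM, 1 h), trypsin-digested, NeutrAvidin-enriched and analysed by diaPASEF. Competition ratio = intensity DMSO / intensity compound (n=4 treated, n=64 DMSO); binding: mean log2 CR ≥ 1 and p ≤ 0.05 plus QC filters. Target is the cysteine site.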", "values": [
      {"target": "THADA C1354 (UniProt Q6YHU6)", "log2 mean competition ratio": -0.201},
      {"target": "TBCE C152 (UniProt Q15813)", "log2 mean competition ratio": 0.0341},
      {"target": "TAB3 C635 (UniProt Q8N5C8)", "log2 mean competition ratio": -0.128},
      {"target": "TAF4B C719 (UniProt Q92750)", "log2 mean competition ratio": -0.0483},
      {"target": "TASOR C761 (UniProt Q9UK61)", "log2 mean competition ratio": -0.431},
      {"target": "TFB2M C383 (UniProt Q9H5Q4)", "log2 mean competition ratio": 0.141},
      {"target": "TEC C495 (UniProt P42680)", "log2 mean competition ratio": -0.0891},
      {"target": "TBC1D4 C316 (UniProt O60343)", "log2 mean competition ratio": 0.176},
      {"target": "TCF25 C367 (UniProt Q9BQ70)", "log2 mean competition ratio": -0.242},
      {"target": "THOP1 C246 (UniProt P52888)", "log2 mean competition ratio": -0.0976},
      {"target": "TBC1D13 C36 (UniProt Q9NVG8)", "log2 mean competition ratio": 0.0213},
      {"target": "SZT2 C2453 (UniProt Q5T011)", "log2 mean competition ratio": -0.115},
      {"target": "TBX2 C311", "log2 mean competition ratio": 0.266},
      {"target": "TAF11 C173 (UniProt Q15544)", "log2 mean competition ratio": -0.0886},
      {"target": "TAX1BP1 C525 (UniProt Q86VP1)", "log2 mean competition ratio": -0.0151},
      {"target": "THUMPD2 C161 (UniProt Q9BTF0)", "log2 mean competition ratio": -0.165},
      {"target": "TBC1D32 C825", "log2 mean competition ratio": -0.176},
      {"target": "TBC1D9B C289 (UniProt Q66K14)", "log2 mean competition ratio": 0.0235},
      {"target": "TBC1D2B C554 (UniProt Q9UPU7)", "log2 mean competition ratio": -0.226},
      {"target": "TDRD7 C600 (UniProt Q8NHU6)", "log2 mean competition ratio": -0.0604}
    ]},
    {"compound": "ClCC(=O)N[C@@H]1CCCc2ccccc12", "test": "log2 mean competition ratio of IA-DTB cysteine labelling (DMSO/compound) (log2 ratio); higher = stronger cysteine engagement by compound", "conditions": "200 µM; treatment time: 4 h; cell line lysate: HEK293T", "description": "as §1", "values": [
      {"target": "THADA C1354 (UniProt Q6YHU6)", "log2 mean competition ratio": 0.0623},
      {"target": "TBCE C152 (UniProt Q15813)", "log2 mean competition ratio": -0.0693},
      {"target": "TAB3 C635 (UniProt Q8N5C8)", "log2 mean competition ratio": 0.0551},
      {"target": "TAF4B C719 (UniProt Q92750)", "log2 mean competition ratio": -0.101},
      {"target": "TASOR C761 (UniProt Q9UK61)", "log2 mean competition ratio": 0.495},
      {"target": "TFB2M C383 (UniProt Q9H5Q4)", "log2 mean competition ratio": 0.0875},
      {"target": "TEC C495 (UniProt P42680)", "log2 mean competition ratio": 0.153},
      {"target": "TBC1D4 C316 (UniProt O60343)", "log2 mean competition ratio": 0.155},
      {"target": "TCF25 C367 (UniProt Q9BQ70)", "log2 mean competition ratio": 0.0374},
      {"target": "THOP1 C246 (UniProt P52888)", "log2 mean competition ratio": 0.521},
      {"target": "TBC1D13 C36 (UniProt Q9NVG8)", "log2 mean competition ratio": -0.41},
      {"target": "SZT2 C2453 (UniProt Q5T011)", "log2 mean competition ratio": 0.0764},
      {"target": "TBX2 C311", "log2 mean competition ratio": -0.0697},
      {"target": "TAF11 C173 (UniProt Q15544)", "log2 mean competition ratio": 0.331},
      {"target": "TAX1BP1 C525 (UniProt Q86VP1)", "log2 mean competition ratio": -0.0143},
      {"target": "THUMPD2 C161 (UniProt Q9BTF0)", "log2 mean competition ratio": 0.0392},
      {"target": "TBC1D32 C825", "log2 mean competition ratio": -0.144},
      {"target": "TBC1D9B C289 (UniProt Q66K14)", "log2 mean competition ratio": 0.0983},
      {"target": "TBC1D2B C554 (UniProt Q9UPU7)", "log2 mean competition ratio": 0.306},
      {"target": "TDRD7 C600 (UniProt Q8NHU6)", "log2 mean competition ratio": -0.733}
    ]}
  ]
}
